# Laboratory results published in PubChem BioAssay AID504444 (National Center for Advancing Translational Sciences (NCATS), 2011).
# Screen size: about 360,000 compounds; about 7,500 (2.1%) were called active. Inconclusive results, whose numbers are uncertain, are shown with a selection of clear calls. The call rests on the fitted dose curve; in most records, active means well fitted inhibition curve with a large enough effect; inconclusive means small, poorly fitted or top-dose-only effect, or effect the other way; inactive means flat fitted curve, though single readings scatter. A potency beside an inconclusive call is a rough fit, not a confirmed value.
# Experiment: Nrf2 qHTS screen for inhibitors; further: nearly all actives have a fitted effect of over 60% in size
# Conditions: A549 ARE-Fluc reporter, luciferase luminescence, 18-24 h; activity change, negative = inhibition: at 46 µM (top of the series)
# Outline: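 Concentration-response testing used A549 ARE_Fluc cells at 5000 cells/well. Following an 18-24 h compound incubation, viability was read by fluorescence (Ex 405/Em 525) and luciferase output by luminescence.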
# On the % scale 0 is the no-effect control and ±100 the full control effect; potency means the concentration at half of the fitted maximal effect.
Structure (SMILES),Potency,"activity change, negative = inhibition"
CC1=C(C(=O)NC(C)C)C2(CCC(C)CC2)OC1=O (configuration not stated),"inconclusive: 6.51 µM [falling, partial curve, poor fit]",
Brc1c(CSc2nc3ccccc3s2)nc2ncccn12,"inconclusive: 7.31 µM [activator, single point]",
COc1cc(F)c(S(=O)(=O)N2CCN(S(=O)(=O)c3ccc4c(c3)OCCO4)CC2)c(F)c1,,inactive: 1.71%
Cc1ccccc1C(=O)NCCOc1ccccc1Cl,"inconclusive: 1.16 µM [activator, full curve]",
COc1ccc(NC(=O)CSc2nnc(N)n2CC(=O)Nc2ccc(OC)cc2)cc1,,inactive: 2.56%
Cn1c(N)c(C(=O)COC(=O)Cc2ccc(Cl)cc2Cl)c(=O)n(C)c1=O,"inconclusive: 23.1 µM [falling, partial curve, poor fit]",
O=C(NCCCN1CCOCC1)c1ccc(N2CCCC2)c([N+](=O)[O-])c1,,inactive: -6.15%
COc1cccc(Nc2nc(-c3ccccc3)c3cc(C)ccc3n2)c1,,inactive: -8.95%
COc1ccccc1C(CNC(=O)c1oc2ccccc2c1C)N1CCCC1 (configuration not stated),,inactive: 2.46%
COc1cccc(C(=O)C(=O)c2cccc(OC)c2OC)c1OC,,inactive: 3.62%
Cc1cccc(CNC(=O)c2ccc(Cn3c(=O)c4cccn4c4cccnc43)cc2)c1,,inactive: -6.15%
COc1ccc(-c2cc3ccccc3n2CC(O)CN2CCC(C)CC2)cc1 (configuration not stated),"inconclusive: 6.51 µM [falling, partial curve, poor fit]",
C/C(=N\Nc1cc(N2CCOCC2)ncn1)c1cccc([N+](=O)[O-])c1,"inconclusive: 6.51 µM [falling, single point]",
Cc1sc2ncnc(N3CCC(C(=O)N(CC(C)C)c4nc5ccccc5s4)CC3)c2c1C,"inconclusive: 32.6 µM [falling, single point]",
CCOC(=O)C1=C(NC(=S)NC(=O)c2ccccc2)c2ccccc2CC1(C)C,"inconclusive: 10.3 µM [falling, partial curve, poor fit]",
CC1CCCCC12NC(=O)N(CC(=O)Nc1ccc(Cl)c(S(=O)(=O)N3CCOCC3)c1)C2=O (configuration not stated),"inconclusive: 18.4 µM [falling, single point]",
Oc1ccccc1C=NC1=NN(c2cccc(C(F)(F)F)c2)CC1,"inconclusive: 5.8 µM [falling, partial curve, poor fit]",
CC(C)C(=O)Nc1ccc2nc(SCCOc3ccccc3)sc2c1,"inconclusive: 1.64 µM [falling, full curve, poor fit]",
CCn1c(=O)n(CC)c2cc(N3CCCCC3)c(NC(=O)Nc3cc(Cl)ccc3OC)cc21,"inconclusive: 29.1 µM [falling, single point]",
Cc1nnc(SCC(=O)N2c3ccccc3C(C)(c3ccc(Cl)cc3)CC2(C)C)s1 (configuration not stated),"inconclusive: 29.1 µM [falling, single point]",
Cc1ccc(NCC(=O)N/N=C/c2cccc(Oc3ccccc3)c2)cc1,"inconclusive: 23.1 µM [falling, single point]",
Cc1ccc(C(=O)NNCC(=O)Nc2ccc(Cl)cc2F)cc1,,inactive: -10.7%
Cc1ccc(CNc2ccc(S(=O)(=O)N3CCOCC3)cc2[N+](=O)[O-])cc1,"inconclusive: 29.1 µM [falling, single point]",

Structure (SMILES),Potency,"activity change, negative = inhibition"
Cc1ccc(C(=O)Nc2nc(-c3cc(Cl)sc3Cl)cs2)cc1,"inconclusive: 8.2 µM [falling, partial curve, poor fit]",
CCCCOCc1cc(CN2CCN(c3cccc(Cl)c3)CC2)c(O)c2ncccc12,"inconclusive: 20.6 µM [falling, single point]",
C=C(C)COc1ccc(-c2n[nH]c(C)c2-c2ccc(OC)c(OC)c2)c(O)c1,"inconclusive: 29.1 µM [falling, single point]",
Cc1nn2c(-c3cccc(NC(=O)c4ccc(Cl)cc4)c3)nnc2c2ccccc12,"inconclusive: 0.0517 µM [falling, full curve]",
Cc1cc(C)nc(NC(=O)c2cccs2)n1,,inactive: 13.2%
NS(=O)(=O)c1ccc(CCNC(=O)CN2CCN(Cc3cccc4ccccc34)CC2)cc1,"inconclusive: 9.2 µM [falling, partial curve]",
Cc1ccc(NC(=S)N(CCCN2CCCC2)Cc2cccn2Cc2ccc(Cl)cc2)cc1Cl,"inconclusive: 0.206 µM [falling, full curve, poor fit]",
Cc1ccc(NC(=O)c2cc(S(=O)(=O)NCCC3=CCCCC3)ccc2F)cc1,active: 14.6 µM,
CCO[C@@H]1OC(C(=O)N2CCN(Cc3ccccc3)CC2)=C[C@H](c2ccc(C(F)(F)F)cc2)[C@H]1CCCO,,inactive: -23.3%
Cc1cccc(C(=O)Nc2ccccc2C(=O)NCc2ccco2)c1,,inactive: 4.28%
S=C(NCCCc1cnc[nH]1)NCCCN(Cc1ccc(Cl)cc1)c1ncc(Br)cn1,"inconclusive: 0.231 µM [falling, full curve]",
CCOc1c(Br)cc(C(=O)OCC(=O)N2CCc3ccccc3C2)cc1OC,"inconclusive: 13 µM [activator, partial curve, poor fit]",
O=C(c1ccc2c(=O)n(CCc3ccccc3)c(=O)[nH]c2c1)N1CCN(c2ccc(Cl)cc2)CC1,"inconclusive: 3.66 µM [falling, single point]",
COc1ccc(C(=O)Nc2ccc(S(=O)(=O)N3CCCCC3C)cc2)c(OC)c1OC (configuration not stated),"inconclusive: 7.31 µM [falling, partial curve, poor fit]",
COc1ccccc1N(C(=O)c1csnn1)C(C(=O)NC1CCCC1)c1ccccc1 (configuration not stated),,inactive: -24.7%
O=C(CN1C(=O)/C(=C/c2ccc(F)cc2)SC1=S)NC1C=CS(=O)(=O)C1 (configuration not stated),"inconclusive: 29.1 µM [falling, single point]",
Cc1ccsc1/C=N/Nc1nc2ccccc2s1,"inconclusive: 18.4 µM [activator, partial curve]",
CCOC(=O)c1nnc2c(Br)c(-c3ccccc3)nn2c1C,"inconclusive: 5.17 µM [falling, partial curve, poor fit]",
Cn1c(=O)c2c(nc(NCCCO)n2Cc2cccc(C(F)(F)F)c2)n(C)c1=O,"inconclusive: 36.6 µM [falling, single point]",
CCC(=C/c1sc2ccc3ccccc3c2[n+]1C)/C=C1\Sc2ccc3ccccc3c2N1C,"inconclusive: 14.6 µM [falling, partial curve, poor fit]",
CN(Cc1nc(-c2ccncc2)no1)S(=O)(=O)c1ccc(Br)cc1,"inconclusive: 23.1 µM [falling, single point]",
CCOC(=O)/C(C)=C1\NC(C)(C)Cc2ccccc21,,inactive: -13.9%
CC(NC(=O)c1c(O)c2ccccc2n(C)c1=O)c1ccccc1 (configuration not stated),"inconclusive: 23.1 µM [activator, single point]",

Structure (SMILES),Potency,"activity change, negative = inhibition"
O=C(CSc1nnc(CNC(=O)c2c(F)cccc2Cl)o1)Nc1cccc(F)c1,,inactive: 45.4%
COc1ccc(-c2nc(CN3CCN(C(=O)c4ccco4)CC3)c(C)o2)c(F)c1,,inactive: -5.89%
c1ccc(-n2ncc3c(NCCN4CCOCC4)ncnc32)cc1,"inconclusive: 2.91 µM [activator, partial curve]",
CC(C)Cn1c(/C=C/c2ccc(F)cc2)nc2ccccc21,"inconclusive: 14.6 µM [activator, partial curve]",
COCCCNC(=O)CCc1c(C)nc2cc(-c3ccc(Cl)cc3)nn2c1C,"inconclusive: 0.259 µM [falling, full curve, poor fit]",
NS(=O)(=O)c1ccc(CNC(=O)/C=C/c2cccc([N+](=O)[O-])c2)cc1,"inconclusive: 18.4 µM [falling, partial curve]",
CCC(CC)C(=O)c1c[nH]c(C(=O)NCc2ccccc2OC)c1,"inconclusive: 29.1 µM [falling, partial curve, poor fit]",
CCN(CC)S(=O)(=O)c1cccc(-c2cn3cc(C)ccc3n2)c1,"inconclusive: 20.6 µM [activator, single point]",
O=C(NCc1cccnc1)c1cccc(S(=O)(=O)Nc2ccc(F)cc2)c1,"inconclusive: 20.6 µM [falling, partial curve, poor fit]",
CC(C)C(=O)OCc1cc(=O)n2nc(C3CCCCC3)sc2n1,"inconclusive: 29.1 µM [activator, single point]",
CCOC(=O)C1CCN(C(=O)CN2C(=O)C(C(C)C)Oc3ccccc32)CC1 (configuration not stated),,inactive: -9.09%
COc1ccc(Cn2c(SC)nc3ccccc32)cc1[N+](=O)[O-],"inconclusive: 23.1 µM [falling, single point]",
O=C(CSCc1ccccc1Br)N/N=C/c1ccccc1C(=O)O,,inactive: 18%
N=c1c(-c2nc3ccccc3[nH]2)cc(C(=O)c2cccs2)nn1-c1ccccc1,,inactive: -5.57%
CC(C)N=C(NS(=O)(=O)c1ccccc1)C(Cl)(Cl)Cl,,inactive: -8.86%
CCc1ccc(NCc2cc3cc4c(cc3n(CC(=O)Nc3ccc(F)cc3)c2=O)OCCO4)cc1,"inconclusive: 2.31 µM [activator, partial curve, poor fit]",
Cc1c(CCC(=O)N2CCC[C@H]2C(=O)O)c(=O)oc2c(C)c3oc4c(c3cc12)CCCC4,active: 6.51 µM,
O=C(NCC(=O)N1CCCCC1)c1ccc(Br)o1,"inconclusive: 2.59 µM [activator, full curve, poor fit]",
N#Cc1nc(-c2ccccc2)oc1NCc1ccco1,,inactive: 13.2%
COc1ccc(N(C)C(=O)c2ccc3c(c2)nnn3C)cc1,"inconclusive: 29.1 µM [falling, single point]",
CCCC(=O)N1CCN(c2ccc(NC(=O)c3ccc([N+](=O)[O-])o3)cc2)CC1,"inconclusive: 20.6 µM [falling, single point]",

# Arranged by number of heavy atoms (rising): part of the list above
Structure (SMILES),Potency,"activity change, negative = inhibition"
O=C(NCC(=O)N1CCCCC1)c1ccc(Br)o1,"inconclusive: 2.59 µM [activator, full curve, poor fit]",
CC(C)N=C(NS(=O)(=O)c1ccccc1)C(Cl)(Cl)Cl,,inactive: -8.86%
N#Cc1nc(-c2ccccc2)oc1NCc1ccco1,,inactive: 13.2%
COc1ccc(N(C)C(=O)c2ccc3c(c2)nnn3C)cc1,"inconclusive: 29.1 µM [falling, single point]",
CC(C)C(=O)OCc1cc(=O)n2nc(C3CCCCC3)sc2n1,"inconclusive: 29.1 µM [activator, single point]",
c1ccc(-n2ncc3c(NCCN4CCOCC4)ncnc32)cc1,"inconclusive: 2.91 µM [activator, partial curve]",
NS(=O)(=O)c1ccc(CNC(=O)/C=C/c2cccc([N+](=O)[O-])c2)cc1,"inconclusive: 18.4 µM [falling, partial curve]",
O=C(NCc1cccnc1)c1cccc(S(=O)(=O)Nc2ccc(F)cc2)c1,"inconclusive: 20.6 µM [falling, partial curve, poor fit]",
CCOC(=O)C1CCN(C(=O)CN2C(=O)C(C(C)C)Oc3ccccc32)CC1 (configuration not stated),,inactive: -9.09%
O=C(CSc1nnc(CNC(=O)c2c(F)cccc2Cl)o1)Nc1cccc(F)c1,,inactive: 45.4%
Cc1c(CCC(=O)N2CCC[C@H]2C(=O)O)c(=O)oc2c(C)c3oc4c(c3cc12)CCCC4,active: 6.51 µM,
CCc1ccc(NCc2cc3cc4c(cc3n(CC(=O)Nc3ccc(F)cc3)c2=O)OCCO4)cc1,"inconclusive: 2.31 µM [activator, partial curve, poor fit]",

# Three compounds out of the list, ordered by SMILES length, smallest number first.
Structure (SMILES),Potency,"activity change, negative = inhibition"
O=C(NCC(=O)N1CCCCC1)c1ccc(Br)o1,"inconclusive: 2.59 µM [activator, full curve, poor fit]",
CC(C)Cn1c(/C=C/c2ccc(F)cc2)nc2ccccc21,"inconclusive: 14.6 µM [activator, partial curve]",
COc1ccc(-c2nc(CN3CCN(C(=O)c4ccco4)CC3)c(C)o2)c(F)c1,,inactive: -5.89%
